± gives the standard deviation of the averaged measurements. Some of the results follow. Many values rest on one well or one pass, so single values are uncertain.
What follows are molecules tested on RAW 264.7 macrophages infected with S. aureus JE2-lux (assay: host macrophage viability (CellTiter-Fluor) relative to DMSO vehicle; higher = more viable host cells). Conditions: 10 µM; treatment time 4 h; gentamicin 50 µg/ml.
In the case of `COc1ccccc1CNS(=O)(=O)c1cc(-c2ccno2)oc1C`, the host macrophage viability is reported as 113%.
Work on `CCOC(=O)c1cc(NC(=O)CSc2nnc3cc(C)c4ccccc4n23)cc(C(=O)OCC)c1` yielded a host macrophage viability of 118%.
Work on `C=CCNC(CC(=O)Nc1ccc(O)cc1C)C(=O)O` (stereo unspecified) yielded a host macrophage viability of 125%.
Work on `O=C(NCc1c(F)cccc1F)C(=O)Nc1cc(F)ccc1F` yielded a host macrophage viability of 93.6%.
`O=C(N1CCc2nc(N3CCCC3)[nH]c(=O)c2C1)C1(c2ccc(Cl)cc2)CCC1` was tested, and the host macrophage viability was 122%.
Molecule `COc1ccc(NS(=O)(=O)c2cn(C)nc2C)cc1NC(=O)CN1CCCC1` has a host macrophage viability of 109%.
`Cc1ccc(N(C(=O)c2csnn2)C(C(=O)NC(C)(C)C)c2ccncc2)cc1C` (stereo unspecified) showed a host macrophage viability of 100%.
In the case of `NS(=O)(=O)c1ccc(NC(=O)CN2C(=O)SC(=C3CCCCC3)C2=O)cc1`, the host macrophage viability is reported as 134%.
`Cc1cccc(NC(=S)N2CCC(n3c(C)nc4cc(F)ccc43)CC2)c1C` was tested, and the host macrophage viability was 108%.
`Cc1cc2cc(CCNC(=S)Nc3ccccc3F)c(=O)[nH]c2cc1C` showed a host macrophage viability of 116 ± 3.8%.
With `CCS(=O)(=O)c1cccc(C(=O)Nc2cccc(-c3nc4ccccc4o3)c2)c1` the host macrophage viability was 136%.
Work on `CCn1nc(C)c2ccnc(N3CCC(C(=O)N4CCN(C5CCN(C)CC5)CC4)CC3)c21` yielded a host macrophage viability of 115%.
`Cc1ccc(C(=O)Nc2ccccc2-c2nc3ccccc3[nH]c2=O)cc1` gave a host macrophage viability of 126%.
Work on `Cc1nnc2ccc(C(=O)N3CCN(Cc4ccccc4)CC3)cn12` yielded a host macrophage viability of 115%.
`Cc1cc(NC(=O)COc2ccccc2F)n(-c2ncnc3c2cnn3-c2cccc(C)c2C)n1` gave a host macrophage viability of 129%.
In the case of `Cc1cc(C(=O)NCc2c[nH]nc2C)c2cccc(-c3ccc(F)cc3)c2n1`, the host macrophage viability is reported as 119%.
`CC1CN(S(=O)(=O)c2ccc(NC(=O)CCN3C(=O)c4ccccc4C3=O)cc2)CC(C)O1` (stereo unspecified) showed a host macrophage viability of 117%.
In the case of `O=C(c1ccco1)N1CCN(c2ncnc3c(-c4ccc(Cl)cc4)nsc23)CC1`, the host macrophage viability is reported as 107%.
`Cc1ccc(C2C3=C(CC(C)(C)CC3=O)Nc3nc(SCCC(C)C)[nH]c(=O)c32)s1` (stereo unspecified) was tested, and the host macrophage viability was 125%.
In the case of `Cc1nnc(SCC(=O)Nc2ccc3c(c2)OCCO3)s1`, the host macrophage viability is reported as 116%.
`Cc1sc2nc(SCC(=O)NCCOCCO)nc(N)c2c1C` was tested, and the host macrophage viability was 111 ± 19%.
`CC1CCc2nc3ncn(CC(=O)NC4CCCC4)c(=O)c3cc2C1` (stereo unspecified) gave a host macrophage viability of 107%.
Work on `COc1ccccc1C(CNC(=O)c1cc(-c2ccccc2)on1)N1CCC(C)CC1` (stereo unspecified) yielded a host macrophage viability of 111%.
In the case of `CCOc1ccc(NC(=O)CC2SC(=N)NC2=O)c([N+](=O)[O-])c1` (stereo unspecified), the host macrophage viability is reported as 127%.
With `CCCc1cc(O)nc(SCC(=O)N2CCc3ccccc3C2)n1` the host macrophage viability was 122%.
With `CCCn1ncc(C)c1NC(=O)Cn1nc2n(C)c3ccccc3n2c1=O` the host macrophage viability was 106%.
In the case of `COc1ccccc1CNC(=O)C(C)n1nc(-c2cc(C)oc2C)cc(N)c1=O` (stereo unspecified), the host macrophage viability is reported as 107%.
For `COc1ccc(C(=O)c2sc3nc4c(cc3c2N)C(=O)CCC4)cc1`, the host macrophage viability was 142%.
Work on `Cc1onc(-c2ccncc2)c1C(=O)N(C)Cc1nc2cc(Cl)ccc2[nH]1` yielded a host macrophage viability of 103%.
With `COc1ccc(CCN2C(=O)C3N=NN(c4ccccc4)C3C2=O)cc1OC` (stereo unspecified) the host macrophage viability was 117%.
Work on `COc1cccc(Nc2nc(NCc3ccc(C)cc3)nc3c2cnn3C)c1` yielded a host macrophage viability of 120%.
For `COc1ccc(OC)c(Nc2nc(NCc3ccco3)nc(N)c2[N+](=O)[O-])c1`, the host macrophage viability was 94.8%.
For `Cc1cc2nc(NC(=O)/C=C/c3cccc([N+](=O)[O-])c3)sc2cc1C`, the host macrophage viability was 115%.
`O=C(O)/C=C\C(=O)NNC(=O)CSc1nc2ccccc2[nH]1` showed a host macrophage viability of 102 ± 9%.
With `O=C(CSc1nc(=O)n2ccccc2n1)Nc1ccc2c(c1)OCO2` the host macrophage viability was 114%.
Molecule `CCOc1ccc2[nH]c(=O)c(CN(CCO)C(=O)Nc3ccc(C)cc3)cc2c1` has a host macrophage viability of 77.3%.
Molecule `Cc1cc(C)n2ncc(C(=O)N3CCN(c4ccccn4)CC3)c2n1` has a host macrophage viability of 110%.
Molecule `CCNS(=O)(=O)c1cc(-c2cc(C(=O)NC3CCCCC3)n[nH]2)ccc1OC` has a host macrophage viability of 85.6%.
In the case of `Cc1ccc(-c2nc3ncccn3c2NC(=O)c2cc3ccccc3oc2=O)cc1`, the host macrophage viability is reported as 124 ± 14%.
`Cc1cccc(C(=O)Nc2sc3c(c2C(N)=O)CC(C)CC3)c1` (stereo unspecified) gave a host macrophage viability of 147%.
For `CCOc1ccc(N2C(=O)c3ccccc3C2C(=O)NCCC(C)C)cc1` (stereo unspecified), the host macrophage viability was 123%.
`COc1ccc(-c2cnc(NC(=O)NC(C)C)n2C)cc1` was tested, and the host macrophage viability was 128%.
`CCOC(=O)c1ccccc1NC(=O)CSc1ccnc2c1c(=O)n(C)c(=O)n2C` gave a host macrophage viability of 120%.
For `Cc1nc2c3ccccc3n(CC(=O)Nc3ccc4c(c3)OCO4)c(=O)n2n1`, the host macrophage viability was 104%.
In the case of `O=C1Oc2ccccc2C(=O)/C1=C/Nc1cccc(Cl)c1`, the host macrophage viability is reported as 110%.
`Cc1cc(C)c2cc(C)c3nnc(SCC(=O)Nc4nnc(C)s4)n3c2c1` showed a host macrophage viability of 121%.
Work on `COc1ccccc1-c1noc(-c2ccc[nH]c2=O)n1` yielded a host macrophage viability of 129%.
With `CC(C)(CCl)C(=O)Nc1c(C(N)=O)oc2ccccc12` the host macrophage viability was 117%.
`Cc1ccc(Cc2cnc(NC(=O)C3Cc4ccc(C)cc4C(=O)O3)s2)cc1` (stereo unspecified) showed a host macrophage viability of 117%.
Molecule `C=CCNc1nnc(SCC(=O)Nc2ccccc2F)c2ccccc12` has a host macrophage viability of 97.9%.
Work on `O=C(O)CC1C(=O)NCCN1Cc1ccc2ccccc2c1` (stereo unspecified) yielded a host macrophage viability of 119%.

From the supplement of paper PMC12578635
